Test results: patent US20080175847A1 (Genentech, published 2008)
These are yes or no findings as the source states them, for the method shown. Some binding calls cover weakened binding; strength is not graded here.

Chains of the proteins cited; added tags and fusions are not shown. Lines headed by an entry give the natural chain unless they say otherwise; changes in a name come on top. Residues count along the entry.
UniProt P78504: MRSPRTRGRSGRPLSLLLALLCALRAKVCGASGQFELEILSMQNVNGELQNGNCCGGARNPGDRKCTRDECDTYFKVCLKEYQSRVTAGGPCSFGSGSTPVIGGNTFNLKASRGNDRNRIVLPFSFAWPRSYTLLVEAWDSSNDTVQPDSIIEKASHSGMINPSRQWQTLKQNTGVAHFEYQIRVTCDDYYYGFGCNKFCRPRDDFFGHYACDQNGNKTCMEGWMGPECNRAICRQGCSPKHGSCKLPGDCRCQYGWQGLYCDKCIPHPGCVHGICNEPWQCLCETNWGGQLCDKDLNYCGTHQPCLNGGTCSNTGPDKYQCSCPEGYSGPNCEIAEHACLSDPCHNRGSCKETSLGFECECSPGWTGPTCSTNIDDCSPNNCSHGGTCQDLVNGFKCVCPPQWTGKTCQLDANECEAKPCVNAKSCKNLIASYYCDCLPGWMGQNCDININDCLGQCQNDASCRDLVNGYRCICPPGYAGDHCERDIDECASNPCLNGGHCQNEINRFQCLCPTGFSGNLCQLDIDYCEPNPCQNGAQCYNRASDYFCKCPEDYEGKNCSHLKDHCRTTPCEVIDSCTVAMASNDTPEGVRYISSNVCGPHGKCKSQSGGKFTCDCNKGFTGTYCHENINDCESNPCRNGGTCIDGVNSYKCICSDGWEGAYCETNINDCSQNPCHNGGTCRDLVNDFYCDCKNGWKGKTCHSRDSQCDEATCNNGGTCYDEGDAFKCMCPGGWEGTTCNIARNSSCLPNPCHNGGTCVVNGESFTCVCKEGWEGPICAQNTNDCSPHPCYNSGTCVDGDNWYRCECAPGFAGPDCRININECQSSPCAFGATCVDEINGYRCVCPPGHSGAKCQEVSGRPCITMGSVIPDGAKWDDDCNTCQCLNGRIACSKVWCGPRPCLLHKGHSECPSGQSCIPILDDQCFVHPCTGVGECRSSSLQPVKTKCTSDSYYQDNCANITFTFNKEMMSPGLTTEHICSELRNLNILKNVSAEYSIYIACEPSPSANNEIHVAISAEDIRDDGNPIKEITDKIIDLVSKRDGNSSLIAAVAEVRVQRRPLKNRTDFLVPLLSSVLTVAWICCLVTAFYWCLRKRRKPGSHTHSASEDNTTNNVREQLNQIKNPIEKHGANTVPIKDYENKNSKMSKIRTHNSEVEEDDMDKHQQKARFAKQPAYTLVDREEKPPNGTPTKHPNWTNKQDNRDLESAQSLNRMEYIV
UniProt O00548: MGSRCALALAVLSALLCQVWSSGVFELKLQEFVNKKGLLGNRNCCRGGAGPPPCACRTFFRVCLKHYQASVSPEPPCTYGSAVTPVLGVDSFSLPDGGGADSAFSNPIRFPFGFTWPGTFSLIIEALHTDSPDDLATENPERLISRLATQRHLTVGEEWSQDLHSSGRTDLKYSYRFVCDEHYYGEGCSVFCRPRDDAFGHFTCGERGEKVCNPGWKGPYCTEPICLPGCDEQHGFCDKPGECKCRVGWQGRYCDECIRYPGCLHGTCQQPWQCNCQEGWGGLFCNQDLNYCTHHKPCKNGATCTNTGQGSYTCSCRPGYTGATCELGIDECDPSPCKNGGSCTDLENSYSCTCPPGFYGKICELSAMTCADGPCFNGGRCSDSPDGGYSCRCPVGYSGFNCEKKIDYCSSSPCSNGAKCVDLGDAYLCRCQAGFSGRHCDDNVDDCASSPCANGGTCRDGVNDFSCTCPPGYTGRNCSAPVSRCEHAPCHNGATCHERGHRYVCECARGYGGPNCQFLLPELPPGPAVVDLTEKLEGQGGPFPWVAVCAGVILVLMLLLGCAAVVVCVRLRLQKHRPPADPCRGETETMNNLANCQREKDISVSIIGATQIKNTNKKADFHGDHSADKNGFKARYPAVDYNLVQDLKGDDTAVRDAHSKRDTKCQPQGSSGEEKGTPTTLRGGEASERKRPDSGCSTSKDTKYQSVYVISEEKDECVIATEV
UniProt Q07008, residues 19-488: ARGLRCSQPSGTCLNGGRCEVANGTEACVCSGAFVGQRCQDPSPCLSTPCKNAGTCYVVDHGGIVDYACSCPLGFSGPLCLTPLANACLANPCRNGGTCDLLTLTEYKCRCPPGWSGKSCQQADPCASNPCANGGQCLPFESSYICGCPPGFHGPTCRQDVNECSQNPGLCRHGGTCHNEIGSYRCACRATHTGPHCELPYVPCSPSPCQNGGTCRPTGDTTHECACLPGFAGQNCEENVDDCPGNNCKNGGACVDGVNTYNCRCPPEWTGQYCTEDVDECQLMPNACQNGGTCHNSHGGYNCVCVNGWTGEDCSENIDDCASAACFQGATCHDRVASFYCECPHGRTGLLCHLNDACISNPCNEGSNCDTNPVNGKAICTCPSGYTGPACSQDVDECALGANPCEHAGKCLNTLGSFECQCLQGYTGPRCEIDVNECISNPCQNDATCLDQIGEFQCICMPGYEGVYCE
UniProt Q9QW30, residues 26-492: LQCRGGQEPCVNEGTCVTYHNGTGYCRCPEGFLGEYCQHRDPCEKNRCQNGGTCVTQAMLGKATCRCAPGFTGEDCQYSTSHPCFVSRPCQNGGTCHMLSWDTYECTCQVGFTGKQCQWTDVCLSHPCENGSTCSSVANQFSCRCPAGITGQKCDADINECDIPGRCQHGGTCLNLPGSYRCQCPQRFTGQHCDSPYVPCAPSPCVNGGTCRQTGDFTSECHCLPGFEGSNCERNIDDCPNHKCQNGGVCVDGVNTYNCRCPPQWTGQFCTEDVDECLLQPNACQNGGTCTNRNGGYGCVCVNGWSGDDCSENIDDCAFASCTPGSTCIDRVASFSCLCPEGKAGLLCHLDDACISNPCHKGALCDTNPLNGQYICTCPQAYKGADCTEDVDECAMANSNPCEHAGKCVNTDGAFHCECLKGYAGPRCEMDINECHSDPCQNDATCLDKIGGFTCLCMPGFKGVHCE

Assays:
[1] = molecular target: Jag1 on transiently transfected 293 cells (Homo sapiens (Human)) (UniProt P78504); assay: FACS on transiently transfected 293 cells, 2 µg/ml
[2] = molecular target: Jag1 on transiently transfected 293 cells (Homo sapiens (Human)) (UniProt P78504); assay: FACS on transiently transfected 293 cells
[3] = molecular target: Jag1 on transiently transfected 293 cells (Homo sapiens (Human)) (UniProt P78504); assay: FACS of transiently transfected 293 cells, rrNotch1-Fc at 2 µg/ml, goat anti-human IgG-PE [middle panel]
[4] = molecular target: DLL1 on transiently transfected 293 cells (Homo sapiens (Human)) (UniProt O00548); assay: FACS on transiently transfected 293 cells, 2 µg/ml
[5] = molecular target: DLL1 on transiently transfected 293 cells (Homo sapiens (Human)) (UniProt O00548); assay: FACS on transiently transfected 293 cells
[6] = molecular target: DLL1 on transiently transfected 293 cells (Homo sapiens (Human)) (UniProt O00548); assay: FACS of transiently transfected 293 cells, rrNotch2-Fc at 2 µg/ml, goat anti-human IgG-PE [bottom panel]

Measured: binding

recombinant rat Notch1-Fc (from UniProt Q07008 19-488) (Fc fusion)
binds: [1] | [2] | [3]

recombinant rat Notch2-Fc (from UniProt Q9QW30 26-492) (Fc fusion)
binds: [4] | [5] | [6]
